Results: article PMC12061330
These are yes or no findings as the source states them, for the method shown. A result given as binding can be weak or reduced; the word gives no strength. Where a sequence is shown, tags or fusion partners need not be part of it. Values belong to the molecule of their own block, whether it stands above or below them.

Protein sequences, listed by entry. Tags and fused reporters are not part of them. Lines headed by an entry give the natural chain unless they say otherwise; changes in a name come on top.
UniProt P01106: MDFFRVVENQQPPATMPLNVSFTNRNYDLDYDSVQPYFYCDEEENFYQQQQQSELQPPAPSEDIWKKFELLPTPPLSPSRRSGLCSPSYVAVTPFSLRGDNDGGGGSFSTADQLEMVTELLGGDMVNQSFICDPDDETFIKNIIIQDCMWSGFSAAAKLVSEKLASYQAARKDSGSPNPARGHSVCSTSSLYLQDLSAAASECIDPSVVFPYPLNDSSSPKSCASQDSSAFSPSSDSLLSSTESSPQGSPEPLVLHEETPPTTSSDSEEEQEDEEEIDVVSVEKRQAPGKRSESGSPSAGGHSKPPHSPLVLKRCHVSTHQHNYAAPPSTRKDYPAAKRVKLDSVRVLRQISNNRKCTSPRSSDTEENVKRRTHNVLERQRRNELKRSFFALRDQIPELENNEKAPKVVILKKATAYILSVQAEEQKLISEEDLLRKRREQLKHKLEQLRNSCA

Tests used:
Assay in all cases: pull-down; Glutathione Sepharose 4B beads incubated with purified GST‐tagged C‐MYC proteins and then His‐S‐tagged PDCD11 proteins; washed 4 times with 1% Triton X‐100 in PBS; blots with anti‐S‐Tag and anti‐GST; both purified
[1] = molecular target: C‐MYC (81–147) (GST‐tagged, recombinant) (UniProt P01106)
[2] = molecular target: C‐MYC (1–80) (GST‐tagged, recombinant) (UniProt P01106)
[3] = molecular target: C‐MYC (1–147) (GST‐tagged, recombinant) (UniProt P01106)

binding [1]: binds
binding [2]: binds
binding [3]: binds
Molecule: PDCD11‐FL (His‐S‐tagged, recombinant) (from UniProt Q14690 1-1871)

binding [1]: binds
binding [2]: binds
binding [3]: binds
B1: PDCD11 (1033–1431) (His‐S‐tagged, recombinant) (domain or fragment, UniProt Q14690 1033-1431)
chain: LSIGDMVTGTVKSIKPTHVVVTLEDGIIGCIHASHILDDVPEGTSPTTKLKVGKTVTARVIGGRDMKTFKYLPISHPRFVRTIPELSVRPSELEDGHTALNTHSVSPMEKIKQYQAGQTVTCFLKKYNVVKKWLEVEIAPDIRGRIPLLLTSLSFKVLKHPDKKFRVGQALRATVVGPDSSKTLLCLSLTGPHKLEEGEVAMGRVVKVTPNEGLTVSFPFGKIGTVSIFHMSDSYSETPLEDFVPQKVVRCYILSTADNVLTLSLRSSRTNPETKSKVEDPEINSIQDIKEGQLLRGYVGSIQPHGVFFRLGPSVVGLARYSHVSQHSPSKKALYNKHLPEGKLLTARVLRLNHQKNLVELSFLPGDTGKPDVLSASLEGQLTKQEERKTEAEERDQKG
